# Values quoted from earlier work in patent US10610500B2, “Chemosensory receptor ligand-based therapies” (Anji Pharma (US) LLC, priority 2011, dated 2020).
# Conditions: phytonutrients in common plant foods
row,Compound,Taste quality
1,C=CCC(=NOS(=O)(=O)O)S[C@@H]1O[C@H](CO)[C@@H](O)[C@H](O)[C@H]1O (stereo in doubt) [Sinigrin],Bitter
2,C[S+]([O-])CCCN=C=S (centres unmarked) [3-Methyl-sulfinylpropyl isothiocyanate],Acrid mustard oils
3,C[S+]([O-])CCCCN=C=S (centres unmarked) [4-Methylsulfinyl butyl isothiocyanate],Acrid mustard oils
4,C=CCN=C=S [Allyl-isothiocyanate],Acrid mustard oils;
5,S=C=NCc1ccccc1 [Benzyl isothiocyanate],Acrid mustard oils;
6,O=c1c(-c2ccc(O)cc2)coc2cc(O[C@@H]3O[C@H](CO)[C@@H](O)[C@H](O)[C@H]3O)ccc12 [Daidzin],Astringent
7,O=C(O[C@@H]1Cc2c(O)cc(O)cc2O[C@@H]1c1ccc(O)c(O)c1)c1cc(O)c(O)c(O)c1 [Epicatechin gallate],Bitter and astringent
8,O=C(O[C@@H]1Cc2c(O)cc(O)cc2O[C@@H]1c1cc(O)c(O)c(O)c1)c1cc(O)c(O)c(O)c1 [Epigallocatechin gallate],Bitter with
9,Oc1cc(O)c2c(c1)O[C@H](c1cc(O)c(O)c(O)c1)[C@H](O)C2 [Epigallocatechin],Bitter with
10,O=c1c(-c2ccc(O)cc2)coc2cc(O)cc(O)c12 [Genistein],Bitter or astringent
11,O=c1c(-c2ccc(O)cc2)coc2cc(O[C@@H]3O[C@H](CO)[C@@H](O)[C@H](O)[C@H]3O)cc(O)c12 [Genistin],Astringent
12,O=S(=O)(O)ON=C(Cc1c[nH]c2ccccc12)S[C@@H]1O[C@H](CO)[C@@H](O)[C@H](O)[C@H]1O [Glucobrassicin],Bitter
13,"C=CC1CNC(=S)O1 (centres unmarked) [Goitrin, Goitrin 5-vinyl-2-oxazolidine thione]",Bitter
14,CC1(C)O[C@H]2CC(=O)OC[C@]23[C@H]2CC[C@@](C)([C@@H](O[C@@H]4O[C@H](CO)[C@@H](O)[C@H](O)[C@H]4O)c4ccoc4)[C@@]4(O[C@@H]4C(=O)O)[C@]2(C)C(=O)C[C@@H]13 [Limonin glucoside],Tasteless
15,CC1(C)O[C@H]2CC(=O)OC[C@]23[C@H]2CC[C@@]4(C)[C@H](c5ccoc5)OC(=O)[C@H]5O[C@]54[C@]2(C)C(=O)C[C@@H]13 [Limonin],Bitter
16,C[C@@H]1O[C@@H](O[C@H]2[C@H](Oc3cc(O)c4c(c3)O[C@H](c3ccc(O)cc3)CC4=O)O[C@H](CO)[C@@H](O)[C@@H]2O)[C@H](O)[C@H](O)[C@H]1O [Naringin],Bitter
17,COc1ccc(-c2cc(=O)c3c(OC)c(OC)c(OC)c(OC)c3o2)cc1OC [Nobiletin],Bitter
18,CC(=O)O[C@H]1CC(=O)OC(C)(C)[C@@H]2CC(=O)[C@]3(C)[C@H](CC[C@@]4(C)[C@H](c5ccoc5)OC(=O)[C@H]5O[C@]543)[C@@]12C [Nomilin],Bitter
19,C=C[C@H](O)CC(=NOS(=O)(=O)O)S[C@@H]1O[C@H](CO)[C@@H](O)[C@H](O)[C@H]1O [Progoitrin],Bitter
20,O=c1c(O)c(-c2ccc(O)c(O)c2)oc2cc(O)cc(O)c12 [Quercetin],Bitter
21,COc1ccc(-c2cc(=O)c3c(OC)c(OC)c(OC)cc3o2)cc1OC [Sinensetin],Bitter
22,COc1ccc(-c2cc(=O)c3c(OC)c(OC)c(OC)c(OC)c3o2)cc1 [Tangeretin],Bitter
23,O=c1c(-c2ccc(O)cc2)coc2cc(O)ccc12 [daidzein],Bitter or astringent
